## Library screening results

Mtb growth Cornell: 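Whole-cell assay for inhibitors of Mycobacterium tuberculosis growth, labelled Cornell in the record; the read-out is not stated. The concentration is filed as 10 mM, unlikely as a test dose, so the dose is not known. Higher means stronger inhibition (inferred from two other growth screens of the library). Size under these conditions: about 53,000 compounds, about 900 of them at 50% or above in at least one test.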
Mtb heat-shock: 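Assay on Mycobacterium tuberculosis, filed only as a heat shock assay from Cornell; the read-out is not stated. The concentration is filed as 10 mM, unlikely as a test dose, so the dose is not known. Higher reads as stronger inhibition (inferred: compounds with an IC50 in retests scored well above the rest). Of about 69,000 compounds tested this way, about 930 (1.4%) reached 50% or more in at least one test.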

Values are the deposited “Percent Effect”, in %.
The controls that fix the scale are not given in the record; negative values are as filed.
Compounds were drawn at random from those tested, without regard to their results.

{"structure": "CC1CCCN(C(=O)c2ncncc2Cl)C1", "stereo": "centres unmarked", "Mtb heat-shock": -11.48}
{"structure": "COC(=O)[C@@H]1Cc2ncn(C)c2CN1S(=O)(=O)c1ccc(C)cc1", "Mtb growth Cornell": 7.463, "Mtb heat-shock": -7.609}
{"structure": "O=C(O)C(F)(F)F.[H][C@@]12CO[C@@H](CNS(C)(=O)=O)[C@]1([H])CCN(Cc1ccsc1)C2", "Mtb heat-shock": -25.96}
{"structure": "O=C(O)C(F)(F)F.[H][C@@]12CCN(c3ncccn3)[C@]1([H])CC[C@H](C(=O)NCc1cccs1)O2", "Mtb growth Cornell": 5.923, "Mtb heat-shock": 5.667}
{"structure": "CC(=O)c1ccc(N2CCN(C(=O)c3cnn4c3OCCC4)CC2)cc1", "Mtb growth Cornell": 19.46, "Mtb heat-shock": 7.211}
{"structure": "CCC(Nc1cccc(OC)c1)C(=O)NCc1ccc2c(c1)OCO2", "stereo": "centres unmarked", "Mtb growth Cornell": 40.03, "Mtb heat-shock": -19.15}
{"structure": "Cc1noc(C(C)C)c1C(=O)NS(=O)(=O)c1ccc2c(c1)OCCCO2", "Mtb growth Cornell": 14.05, "Mtb heat-shock": 5.121}
{"structure": "COC(=O)[C@H](CCSC)NC(=O)Cn1ccc2c(Cl)cccc21", "Mtb growth Cornell": 106.6, "Mtb heat-shock": -13.47}
{"structure": "CC(NC(=O)CN1CCN(c2cccc(Cl)c2)CC1)c1ccco1", "stereo": "centres unmarked", "Mtb growth Cornell": -10.85, "Mtb heat-shock": -14.99}
{"structure": "O=C(CC1CC1)N1CCCn2c(nnc2Cn2cccc2)C1", "Mtb growth Cornell": 20.91, "Mtb heat-shock": -8.521}
{"structure": "Cc1ccccc1COCCOCn1c(C)cc(=O)[nH]c1=O", "Mtb growth Cornell": 13.94, "Mtb heat-shock": -0.2454}
{"structure": "CN(c1ccncn1)C1CC2(CCN(C(=O)c3cncs3)C2)C1", "stereo": "centres unmarked", "Mtb heat-shock": -6.817}
{"structure": "CCCc1noc(CCC(=O)N2CCCC2c2noc(C3CC3)n2)n1", "stereo": "centres unmarked", "Mtb growth Cornell": 16.14, "Mtb heat-shock": 10.66}
{"structure": "Cc1ccc(C)c(-n2nnnc2SCN2CCCCC2=O)c1", "Mtb growth Cornell": -4.298, "Mtb heat-shock": -29.82}
{"structure": "COc1ccccc1CNc1c(O)c(=O)c1=O", "Mtb growth Cornell": 13.69, "Mtb heat-shock": 17.31}
{"structure": "Cc1nc(CNC(=O)NCc2ccc(OCC3CC3)nc2)cs1", "Mtb growth Cornell": -20.76, "Mtb heat-shock": 14.44}
{"structure": "CC(C)S(=O)(=O)NCC1CCCN(C(=O)c2ccc3c(c2)CCC3)C1", "stereo": "centres unmarked", "Mtb growth Cornell": 9.846, "Mtb heat-shock": 14.26}
{"structure": "CCN1CCCC1CNCc1cc2cc(C)c(C)cc2[nH]c1=O", "stereo": "centres unmarked", "Mtb growth Cornell": 34.07, "Mtb heat-shock": 42.82}
{"structure": "CC(=O)Nc1ccc(CNC(=O)CNCc2nnc(C)o2)cc1", "Mtb heat-shock": -112.1}
{"structure": "CCOCc1ccccc1NC(=O)NC1CCN(C(=O)OCC)CC1", "Mtb growth Cornell": -11.65, "Mtb heat-shock": 6.957}
{"structure": "O=C(NCc1nncn1-c1ccccc1)C1CCCCC1", "Mtb heat-shock": -3.922}
{"structure": "CCS(=O)(=O)Nc1ccc2[nH]c(C3CCC3)nc2c1", "Mtb growth Cornell": -2.074, "Mtb heat-shock": -1.161}
{"structure": "CCCS(=O)(=O)N1CCN(Cc2ccco2)CC1.O=C(O)C(=O)O", "Mtb growth Cornell": -8.655, "Mtb heat-shock": 17.58}

Some entries from above, unchanged:

* COC(=O)[C@H](CCSC)NC(=O)Cn1ccc2c(Cl)cccc21 : Mtb growth Cornell: 106.6%; Mtb heat-shock: -13.47%
* CCS(=O)(=O)Nc1ccc2[nH]c(C3CCC3)nc2c1 : Mtb growth Cornell: -2.074%; Mtb heat-shock: -1.161%

Source: ChEMBL document CHEMBL3988442, “University of Dundee, Small-Polar-MMV Screening Library” (2021).